The target in the assay is T1, V5-SBP-Smaug1 (full-length human Smaug1 fused to a V5-SBP double tag) (human) (UniProt Q9UPU9).
T1 sequence: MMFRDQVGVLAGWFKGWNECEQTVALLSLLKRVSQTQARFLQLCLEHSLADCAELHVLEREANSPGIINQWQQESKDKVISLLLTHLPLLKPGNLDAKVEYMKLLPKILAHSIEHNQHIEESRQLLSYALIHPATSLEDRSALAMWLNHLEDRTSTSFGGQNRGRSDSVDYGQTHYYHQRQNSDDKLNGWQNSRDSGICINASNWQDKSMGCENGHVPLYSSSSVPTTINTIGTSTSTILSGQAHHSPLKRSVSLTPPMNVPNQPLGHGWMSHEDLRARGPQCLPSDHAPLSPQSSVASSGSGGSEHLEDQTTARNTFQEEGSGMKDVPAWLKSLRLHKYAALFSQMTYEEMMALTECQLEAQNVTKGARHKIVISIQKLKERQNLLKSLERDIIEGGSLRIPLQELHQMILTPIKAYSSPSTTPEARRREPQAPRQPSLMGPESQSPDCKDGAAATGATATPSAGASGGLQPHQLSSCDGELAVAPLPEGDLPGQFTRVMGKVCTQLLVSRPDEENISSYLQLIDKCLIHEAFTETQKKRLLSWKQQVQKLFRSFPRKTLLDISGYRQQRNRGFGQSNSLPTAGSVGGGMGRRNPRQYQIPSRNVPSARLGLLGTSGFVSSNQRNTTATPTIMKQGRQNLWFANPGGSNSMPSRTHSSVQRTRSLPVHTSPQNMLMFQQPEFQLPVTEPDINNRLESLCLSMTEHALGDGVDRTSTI
The experiment in a line: pull-down.

Among the data in publication doi:10.1101/2020.07.31.223099 are binding values, retold here.

These are yes or no findings as the source states them, for the method shown. Binding seen in cells or lysates may run through a third protein. Some results given as binding are weak or reduced against the parent protein; the word gives no strength. Tags and fused reporters may be left off the sequences shown.

B1: Smaug1-ECFP (pECFP-N1-hSmaug1) (protein, UniProt Q9UPU9 1-718)
chain: T1 sequence
With B1, the binding entry is on record as “binds”.

B2: SSR1/2-ECFP (SSR1/2-hSmaug1-ECFP, amino acids 2 to 154) (domain or fragment, UniProt Q9UPU9 2-154)
chain: MFRDQVGVLAGWFKGWNECEQTVALLSLLKRVSQTQARFLQLCLEHSLADCAELHVLEREANSPGIINQWQQESKDKVISLLLTHLPLLKPGNLDAKVEYMKLLPKILAHSIEHNQHIEESRQLLSYALIHPATSLEDRSALAMWLNHLEDRT
Regarding B2, the binding entry is recorded as “binds”.
